# Test results taken from the supplement of paper PMC3334620.
# The full ranking holds about 33,000 sequences; the median of “E-score (-0.5 to 0.5)” is about -0.0014, and the highest 2% start at about 0.25. This is one part of the list.
# Biological target: T1, Cad1 (UniProt P24813)
# T1 sequence: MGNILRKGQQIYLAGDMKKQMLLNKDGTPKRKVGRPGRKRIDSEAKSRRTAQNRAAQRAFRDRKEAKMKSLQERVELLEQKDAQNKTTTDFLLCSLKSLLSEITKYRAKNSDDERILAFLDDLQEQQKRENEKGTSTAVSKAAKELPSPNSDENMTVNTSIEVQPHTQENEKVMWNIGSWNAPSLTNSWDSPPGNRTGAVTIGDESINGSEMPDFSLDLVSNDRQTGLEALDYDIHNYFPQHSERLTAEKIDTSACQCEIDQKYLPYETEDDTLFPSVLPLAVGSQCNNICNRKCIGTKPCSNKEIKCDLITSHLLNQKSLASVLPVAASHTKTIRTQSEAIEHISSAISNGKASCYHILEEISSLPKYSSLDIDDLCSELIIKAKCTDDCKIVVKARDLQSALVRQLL
# Assay: PBM E-score (8-mer binding enrichment) (E-score (-0.5 to 0.5)); higher = stronger / more preferred TF binding
# Conditions: protein concentration: 100 nM; construct: GST-full length
# How it was run: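 Masliner-normalised scans of fluorescent anti-GST signal were the basis for scoring. That signal came from GST-tagged yeast transcription factors applied at about 100-200 nM to double-stranded universal all-10-mer Agilent arrays on fresh or once-stripped slides. Each ungapped eight-base word, pooled with its reverse complement, received an E-score from the Universal PBM Analysis Suite.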
row,Sequence,PBM E-score
1,ACGTCTTG,-0.0185
2,CTATGGAC,0.0446
3,TATCCACA,0.132
4,AGTTTCCA,0.0647
5,GAGTACTA,0.0169
6,GAAATTTC,0.095
7,AGGACCGC,0.0234
8,AGCAAAGA,-0.0149
9,GGGGGTAC,-0.256
10,AGCTATAG,-0.244
11,CGACTACA,0.0971
12,AATTTCTC,0.107
13,TCCACCAA,0.0952
14,ATGGACTG,-0.0436
15,CTGAAAGC,0.116
16,CAGCTCGC,0.0828
17,AGTTGAAT,0.123
18,AAAGAGCT,-0.0808
19,GCAAGCGA,-0.0403
20,CGACAACC,-0.0742
21,AACCAAGA,0.151
22,AAGGGATA,0.0892
23,GCCCAAAA,0.0303
24,ATTTTTTG,0.122
25,GGGTAGGA,-0.0874

row,Sequence,PBM E-score
1,CTAAAGGA,-0.0686
2,CCGAACGG,0.0834
3,CTCCACAA,-0.0764
4,AACCCTCC,-0.249
5,ATAAGTCG,0.1
6,AGTGGCAA,-0.0116
7,CACGCTCA,0.261
8,AACGTTGG,0.0402
9,AGGAGACT,-0.286
10,GCGGATAC,0.157
11,CACCAAGA,0.125
12,ATTGGTCC,0.0438
13,ATGGCGGA,-0.081
14,CGTGCGCC,0.0558
15,ATGTGCGA,-0.0686
16,AAGCTCGG,0.0173
17,AGAGATTG,0.0141
18,AGAGCTGA,-0.0609
19,AGGCGGAG,0.0182
20,GCGCAGCC,-0.0564
21,AGTCGGCA,-0.146
22,ATTGTTCC,0.19
23,CCGTCTTA,-0.126
24,AATGAAGC,0.0447
25,CCCTGTCC,-0.252

row,Sequence,PBM E-score
1,GACTTGAC,-0.0883
2,CAGCAAGA,0.168
3,CGCCATTA,0.0208
4,CTGCAAAC,-0.0866
5,GCGGCAAA,0.0972
6,AATCCCCC,-0.39
7,ATGTAATC,0.168
8,AATCGCTG,0.0876
9,CGAATGTA,-0.0748
10,TAGGAAAA,-0.00955
11,CTCCTAAA,-0.249
12,CAATATTA,0.187
13,ACCGCTTA,0.0926
14,GCCGACCA,-0.0453
15,CATAGGGG,-0.0969
16,GGACGCCA,-0.0737
17,ATCCTAAC,0.127
18,CGAGCCGC,0.11
19,AGGTAAGG,-0.105
20,ACAAATGA,0.148
21,AGACTACT,0.0845
22,AACATGGT,0.0188
23,GGAGCTAA,-0.0999
24,GATAGGCA,-0.0196
25,CAAACTCC,0.00985

row,Sequence,PBM E-score
1,TGAGCTAA,-0.0989
2,AGAGACAA,-0.0421
3,AGGATTAA,0.167
4,CGCGTGAA,0.227
5,ATGGTCAG,0.182
6,GAACTGGA,0.158
7,TATGAAAA,0.163
8,TACCGAAA,0.00486
9,TACACAGA,0.117
10,CCTTACAC,-0.129
11,AACAAGCG,0.199
12,ATGCTTAG,0.145
13,AAGAAGCT,0.0694
14,GCGTTGCC,0.0483
15,CTTAGCGA,0.041
16,CAATGTCG,0.074
17,AATGAGTC,-0.0776
18,GACCATTA,0.0271
19,ACTTACAC,-0.0153
20,AGCGCCTG,0.0582
21,CGTGTCCC,-0.208
22,GGCCAGGA,0.0859
23,ACTCATCG,0.0286
24,GACAGGAC,-0.149
25,CATCTTTC,-0.0525

row,Sequence,PBM E-score
1,ACACCCAT,0.0236
2,GCTAACGA,0.0654
3,AACTTACA,0.143
4,CATAAATG,-0.127
5,GGGGGATA,-0.323
6,AAATGTCC,-0.204
7,AATGGCGT,-0.0762
8,AAATTCCC,-0.00316
9,GCGCTACA,0.141
10,AAGTAAGA,-0.215
11,AAGGCACG,0.0467
12,ATGATTTC,0.172
13,ATCCTGGA,0.0158
14,GGTCCATA,-0.158
15,CCCCCAGG,-0.361
16,GTGAAACA,0.0578
17,GTAGCGAC,-0.137
18,GCATTGAA,0.0835
19,CGTAAAAC,-0.109
20,CGACATTA,0.163
21,GTAGCCTA,-0.154
22,ACTCTGAC,-0.094
23,AGCCAGAC,-0.0137
24,GGCCTAGA,-0.15
25,AGGTAGTC,-0.0998

# An excerpt of these results, as tab-separated lines:
row	Sequence	PBM E-score
6	GAAATTTC	0.095
7	AGGACCGC	0.0234
8	AGCAAAGA	-0.0149
9	GGGGGTAC	-0.256
10	AGCTATAG	-0.244
11	CGACTACA	0.0971
12	AATTTCTC	0.107
13	TCCACCAA	0.0952
14	ATGGACTG	-0.0436
15	CTGAAAGC	0.116
16	CAGCTCGC	0.0828
17	AGTTGAAT	0.123
18	AAAGAGCT	-0.0808
19	GCAAGCGA	-0.0403
20	CGACAACC	-0.0742
21	AACCAAGA	0.151
22	AAGGGATA	0.0892
23	GCCCAAAA	0.0303
24	ATTTTTTG	0.122
25	GGGTAGGA	-0.0874
1	CTAAAGGA	-0.0686
2	CCGAACGG	0.0834
3	CTCCACAA	-0.0764
4	AACCCTCC	-0.249
5	ATAAGTCG	0.1
6	AGTGGCAA	-0.0116
7	CACGCTCA	0.261
8	AACGTTGG	0.0402
9	AGGAGACT	-0.286
10	GCGGATAC	0.157
11	CACCAAGA	0.125
12	ATTGGTCC	0.0438
13	ATGGCGGA	-0.081
14	CGTGCGCC	0.0558
15	ATGTGCGA	-0.0686
16	AAGCTCGG	0.0173
17	AGAGATTG	0.0141
18	AGAGCTGA	-0.0609
19	AGGCGGAG	0.0182
20	GCGCAGCC	-0.0564
21	AGTCGGCA	-0.146
22	ATTGTTCC	0.19
23	CCGTCTTA	-0.126
24	AATGAAGC	0.0447
25	CCCTGTCC	-0.252
1	GACTTGAC	-0.0883
2	CAGCAAGA	0.168
3	CGCCATTA	0.0208
4	CTGCAAAC	-0.0866
5	GCGGCAAA	0.0972
6	AATCCCCC	-0.39
7	ATGTAATC	0.168
8	AATCGCTG	0.0876
9	CGAATGTA	-0.0748
10	TAGGAAAA	-0.00955
11	CTCCTAAA	-0.249
12	CAATATTA	0.187
13	ACCGCTTA	0.0926

# Later entries

row,Sequence,PBM E-score
1,GGAAGATA,0.00682
2,CGCACCTC,-0.104
3,AAGCTAGA,-0.0158
4,GATTTCCA,0.0565
5,ATAGCTGA,-0.0845
6,AAACCAGG,-0.0514
7,ACCCTCAC,-0.0597
8,CATGTTAC,0.0475
9,GTAGCAAA,0.165
10,CAGTTGCA,0.00906
11,CACTCTTC,-0.185
12,ATCGGCAT,0.156
13,TAGCGTCA,-0.00814
14,CAGCCCCG,-0.0953
15,CCATAGCC,-0.118
16,CCGGCCGA,0.017
17,CGACAGCC,-0.0619
18,AAGACATC,-0.156
19,CACGCAGG,0.0223
20,GTTAATGA,-0.0254
21,ATATAGAT,0.118
22,AACCCACG,-0.0654
23,GTCGTGTA,0.0604
24,TCACCCCA,-0.12
25,AATATCCA,0.0727

row,Sequence,PBM E-score
1,AGTATGAC,-0.0247
2,CCGTCAAC,-0.134
3,AATCCACA,0.0931
4,AGGTTGGG,-0.0998
5,CACCCCAG,-0.2
6,AAAATGTG,0.193
7,CCGTGATA,-0.0452
8,GAGTGGAC,-0.0117
9,GCGATGAC,0.138
10,CATCGAGA,-0.0411
11,CAATGGTG,-0.158
12,ATGGTTCC,0.177
13,CGACCGAG,-0.0641
14,GTGGGAGA,-0.172
15,CAACTTGC,-0.129
16,AAAATTGC,0.0977
17,AGCTCTGG,-0.0343
18,CGCGCACA,0.257
19,AAAATGTC,0.203
20,ACTCCGAC,-0.105
21,ATGCTAAC,0.0246
22,CTCAGAAG,-0.145
23,ACGGGTGG,-0.137
24,CATAACAA,0.211
25,CCACCTAA,0.0241

row,Sequence,PBM E-score
1,AGACCGCT,-0.0931
2,GAAATAGC,0.0972
3,CAACCCGG,-0.18
4,TGATCAAA,0.148
5,ATAGTAAA,0.225
6,AACCGCCA,-0.127
7,CCAGTCAC,-0.0168
8,CGTTACCC,-0.3
9,CTGCGGCA,0.011
10,ACCCAAGA,0.0411
11,AGCGAGCC,0.00865
12,AGAGAGTC,-0.201
13,GACGTACA,0.00672
14,GTTTCAGA,-0.00273
15,CCGTCGGC,-0.18
16,ACTGACGG,-0.146
17,ACTCCCTC,-0.201
18,ACCATTGG,0.0804
19,GACGCATA,0.0784
20,CATGAATA,-0.0221
21,AACGCCTA,-0.0958
22,ACACACTC,0.209
23,AGTCCTCG,-0.113
24,AGGCCTGC,-0.0625
25,GGAGCGGA,-0.0843

row,Sequence,PBM E-score
1,CGGGAACG,-0.0309
2,ACCCCGAG,-0.149
3,ATCACACA,0.14
4,CATCGACA,-0.0756
5,AAGTGTGG,0.00595
6,AAGTCGCC,-0.249
7,GTGGGCAA,-0.145
8,GCGCTAAC,0.139
9,CCTGGACC,0.0377
10,ACCCCACG,-0.251
11,ATCGGAAC,0.166
12,CAGGCAAA,0.0957
13,AAATCCCC,-0.23
14,ACGTCTAC,-0.0552
15,CCAGAGCG,-0.0616
16,AACTTGGC,0.117
17,CTAACTAA,0.206
18,AGCCTGAA,-0.0823
19,ATGCTCGC,0.0221
